# Data reported in PubChem BioAssay AID652054 (National Center for Advancing Translational Sciences (NCATS), 2013).
# Chains of the proteins cited; added tags and fusions are not shown.
# UniProt P35462, whole entry, looked up: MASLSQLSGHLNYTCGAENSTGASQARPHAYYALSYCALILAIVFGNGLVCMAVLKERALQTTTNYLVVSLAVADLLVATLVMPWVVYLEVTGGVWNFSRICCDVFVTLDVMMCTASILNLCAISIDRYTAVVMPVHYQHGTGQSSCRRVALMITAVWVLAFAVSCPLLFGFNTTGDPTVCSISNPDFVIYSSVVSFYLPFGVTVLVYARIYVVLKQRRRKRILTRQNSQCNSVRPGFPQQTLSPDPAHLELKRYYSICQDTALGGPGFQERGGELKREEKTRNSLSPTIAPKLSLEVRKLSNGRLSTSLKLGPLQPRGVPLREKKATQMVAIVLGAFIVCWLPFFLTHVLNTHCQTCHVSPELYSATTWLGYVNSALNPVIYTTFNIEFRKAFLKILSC
# Where “and” joins values, the source holds several entries; their conditions need not be identical. Identical values can stand only once. Out of some 360,000 compounds screened, about 9,100 (2.5%) were called active. This list was built around the results that the source calls inconclusive (neither active nor inactive); the mix of calls is not that of the screen. No stated cut-off is given here; in the data, active means max response below about -50%; inconclusive means no clear call, values can overlap the other calls; inactive means above that.
# Molecular target: D(3) dopamine receptor (Homo sapiens) (UniProt P35462)
# Experiment: qHTS of D3 Dopamine Receptor Antagonist: qHTS
# Conditions: D3R cells, DiscoveRx beta-arrestin luminescence, antagonist mode; stronger effect = lower value
# Procedure, shortened: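 Cells expressing the human receptor were seeded at 1500 cells/well, incubated overnight at 37 degrees C in 5% CO2, then exposed to library compounds with dopamine controls for 90 minutes at 37 degrees C before luminescent detection.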
# On the % scale 0 is the no-effect control and ±100 the full control effect.
row,SMILES,"max response, negative = inhibition"
1,COc1ccccc1CNCCS(=O)(=O)NCc1ccccc1OC,inconclusive: -46.4%
2,O=C(CSc1nnc2n(C3CCCC3)c(=O)c3ccccc3n12)N1CCCCCC1,inactive: 14.8%
3,Cc1nn(Cc2ccccc2Cl)c(C)c1NC(=O)c1nc2ncccn2n1,inconclusive: -42.6%
4,O=C(NCc1ccccn1)c1ccc(N2CCCC2=O)cc1,inconclusive: -49.8%
5,COc1cc(C(=O)NC2CCN(Cc3ccccc3)CC2)cc(Cl)c1OC,active: -99%
6,Cc1ccc(NC(=O)COc2ccc(/C=C3/SC(=Nc4ccccc4)N(Cc4cccnc4)C3=O)cc2)cc1,inactive: 52%
7,COc1ccc(C)cc1S(=O)(=O)NCC(c1ccco1)N1CCc2ccccc2C1 (stereo not given),inconclusive: -31.5%
8,CCOc1ccc(C(=O)Nc2cc3c(cc2N2CCCC2)n(CC)c(=O)n3CC)cc1OCC,inactive: 8.21%
9,Cc1c(Cl)cccc1NC(=O)C1NC(=O)CC1c1ccccc1 (stereo not given),inconclusive: -30.6%
10,CCOC1=C2[C@@H](CN(S(=O)(=O)c3ccc(C)cc3)[C@H]2c2ccccc2F)[C@H]2C(=O)N(Cc3ccccc3)C(=O)[C@H]2C1,inconclusive: -34.9%
11,CSc1nc(-c2ccccc2)nc(N2CCCC2)c1C(C)=O,inactive: 12.7%
12,CN1C(=O)C2(Nc3ccccc3-c3nc4ccccc4n32)c2ccccc21 (stereo not given),inactive: -0.531%
13,N#CCC(=O)NNc1c([N+](=O)[O-])cc(C(F)(F)F)cc1[N+](=O)[O-],inconclusive: -44.7%
14,Cc1ccc(NC(=O)C2(C)CCN2C(=O)Cc2ccc(-c3ccccc3)cc2)cc1 (stereo not given),inactive: 25.9%
15,Cc1oc(=O)c(NC(=O)c2ccccc2)cc1C(=O)c1ccccc1,inconclusive: -40.8%
16,COc1ccc(OC)c(CC(=O)Nc2ccc3c(c2)c(=O)n(C)n3Cc2cccc(C(F)(F)F)c2)c1,active: -52.4%
17,COc1cccc(NC(=O)CN(C)C(=O)Cc2cccc3ccccc23)c1,inactive: 8.96%
18,COCCNC(=O)Cn1cnc2c(cnn2-c2ccc(C)cc2)c1=O,inconclusive: -35.1%
19,COc1ccc(C(=S)Nc2ccc(N(C)C)cc2)cc1,inconclusive: -32.5%
20,O=[N+]([O-])c1ccc2cc[nH]c2c1,inactive: -14.7%
21,COc1ccc(C(=O)C2CCCN(C3Cc4ccccc4C3)C2)c(OC)c1 (stereo not given),inconclusive: -47.7%
22,COc1ccc(N2CCN(C(=O)c3nn(C)c4c3CS(=O)(=O)c3ccccc3-4)CC2)cc1,inactive: 1.32%

row,SMILES,"max response, negative = inhibition"
1,CC(C)C[C@H]1CNC(=O)C(=O)N1CC1CCN(CC2CCC(C(C)(C)C)CC2)CC1 (stereo not given in full),active: -56.9%
2,COc1cccc(NC(=O)C2(C)CCN2C(C)C)c1OC (stereo not given),inconclusive: -30.6%
3,O=C(Nc1ccc(Oc2ccc(NC(=O)c3ccco3)c(NC(=O)c3ccco3)c2)cc1)c1ccco1,active: -92.6%
4,CC(C)(C)NC(=S)NC(=O)C12CC3CCC(CC(C3)C1)C2,inconclusive: -33.6%
5,CC[C@@]12C(=O)N(c3ccc(OC)cc3)C(=O)N1[C@H](c1ccc(Cl)cc1)[C@@H]1C(=O)N(C3CCCCC3)C(=O)[C@@H]12,active: -56.8%
6,CCOc1ccc(C2C(C#N)=C(N)Oc3cc(C)n(Cc4ccco4)c(=O)c32)cc1OC (stereo not given),active: -52.6%
7,O=[N+]([O-])c1ccc2[nH]c(O)c(N=NC(=S)Nc3cccnc3)c2c1,inconclusive: -30.4%
8,CCOC(=O)/C(=N/Nc1ccc(OC)cc1)N1CCCc2ccccc21,inactive: 6.47%
9,COc1ccc(NC(=O)CC2CC3CCC2C3)cn1 (stereo not given),inactive: -7.09%
10,CCCC(=O)C1=C(O)C(C(=O)OC)C(C)(C)CC1=Nc1ccc(OC)cc1 (stereo not given),inactive: 9.6%
11,Cc1cccc(-c2cc(NC=O)c3ncc(-c4cccc(C(=O)N(C)C)c4)n3c2)c1,inactive: 9.41%
12,COc1cc(OC)c(S(=O)(=O)Nc2ccc(C(=O)N3CCCC3)cc2)cc1NC(C)=O,inconclusive: -39.3%
13,COc1ccc(N2CCN(CC(=O)Nc3ccc(SC(F)F)cc3)CC2)cc1,inactive: -29.1%
14,Cc1ccc(-n2c3nc(=O)[nH]c(=O)c-3cc3cc([N+](=O)[O-])ccc32)cc1C,inconclusive: -31.5%
15,Cc1nc([N+](=O)[O-])c(Br)n1CC(=O)c1cccc([N+](=O)[O-])c1,active: -50.6%
16,CSc1nsc(/C=C/Nc2ccc(C)c(C)c2)c1C#N,inactive: -0.685%
17,O=C(CS(=O)(=O)c1ccc(F)cc1)NCCS(=O)(=O)c1ccccc1,inactive: 22.4%
18,Cc1nc2scc(C)n2c(=O)c1S(=O)(=O)NCC1CCN(Cc2ccc(Cl)cc2)CC1,inconclusive: -33.9%
19,O=C(CCN1CCCCCC1)Nc1ccc(F)c(F)c1,active: -61.9%
20,CCOc1ccc(NC(=S)NCCN2CCN(Cc3ccccc3)CC2)cc1,inconclusive: -40%
21,O=C(O)CNC(=O)c1ccccc1F,inconclusive: -38.7%
22,Cc1cccc(N2C(=O)N3[C@H](c4ccc(Br)cc4)[C@@H]4C(=O)N(C(C)(C)C)C(=O)[C@@H]4[C@]3(C)C2=O)c1,inactive: 14.2%

row,SMILES,"max response, negative = inhibition"
1,COC(=O)c1ccc(COc2ccccc2/C=C(\C#N)C(=O)Nc2c(C)cccc2C)cc1,inactive: 4.56%
2,CC(=O)c1ccc(N2CCc3ccccc3C2)c([N+](=O)[O-])c1,inactive: -1.4%
3,NC(=O)CCS(=O)(=O)CCN1CCN(S(=O)(=O)c2ccc3c(c2)CCC3)CC1,inconclusive: -33%
4,CCCn1c(SC(C)C(=O)O)nc2ccccc21 (stereo not given),inconclusive: -45.7%
5,C/C(CCS(=O)(=O)c1ccccc1)=N/O,inactive: -6.07%
6,COc1cc(C2Nn3c(nnc3-c3ccccc3OC)S2)ccc1O (stereo not given),inconclusive: -45.5%
7,CCCN(CCC)CCCNC(=O)CC1Nc2ccccc2NC1=O (stereo not given),inconclusive: -31%
8,O=C1NC[C@H](CCCCN2C[C@H](Cc3ccc(O)cc3)N(CCc3ccccc3)C(=O)C2=O)N(Cc2ccccc2)C1=O,inconclusive: -32.1%
9,CCN1C[C@@H]2[C@@H]3C(=O)N(Cc4ccccc4)C(=O)[C@@H]3[C@](Cc3ccccc3)(C(=O)OC)N2C1=NCc1ccccc1,inconclusive: -36.4%
10,CCCCN(C(=O)c1ccccc1Cl)C(CC(C)C)c1nc2ccccc2[nH]1 (stereo not given),inactive: 7.88%
11,COc1ccc(N2CCN(CCNC(=O)Nc3ccc(C)c(Cl)c3)CC2)cc1,inconclusive: -37.7%
12,O=C(Nc1ccccc1C(F)(F)F)C1CC(=O)N(c2ccccc2F)C1 (stereo not given),inconclusive: -35%
13,CC(=O)N1CCN(S(=O)(=O)c2cccc(C(=O)Nc3ccc(OC(F)F)cc3)c2)CC1,inconclusive: -31.3%
14,CN(Cc1ccccc1)C(=S)NC(=O)c1ccccc1,inconclusive: -31.3%
15,COCCNC(=S)NC1CC2CCC(C1)N2Cc1ccccc1 (stereo not given),inconclusive: -44.5%
16,O=[N+]([O-])c1cc2no[n+]([O-])c2cc1N1CCCCC1,inconclusive: -31.6%
17,Cc1ccccc1S(=O)(=O)N1C[C@H]2CON(C)[C@H]2C[C@H]1c1cccc(N2CCOCC2)c1,inconclusive: -38.2%
18,CC(=O)c1ccc(S(=O)(=O)N(C)CC(=O)Nc2ccc(C)cc2)cc1,inactive: 20.5%
19,O=C(Nc1cccc(Cn2cccn2)c1)c1cc2c(s1)CCCC2,inconclusive: -43.9%
20,COc1ccc(C2SCC(C(=O)O)N2C(C)=O)cc1OC (stereo not given),inconclusive: -30.5%
21,Cc1cc(OCCOCCNC(C)C)cc(C)c1Cl,active: -58.4%
22,Cc1ccc(NS(=O)(=O)c2cc3c4c(cccc4c2)C(=O)NC3=O)cc1C,inconclusive: -44.6%

row,SMILES,"max response, negative = inhibition"
1,C=CCN(c1ccccc1)S(=O)(=O)c1cccc(C(=O)NCC(c2ccccc2OC)N2CCCC2)c1 (stereo not given),inconclusive: -40.7%
2,O=c1[nH]c(=S)[nH]c2scc(-c3ccc(Br)cc3)c12,inconclusive: -46.6%
3,O=C(C1=C(O)C(=O)N(c2ncccn2)C1c1ccc(F)cc1)c1ccco1 (stereo not given),inactive: 6.59%
4,OC(COCc1cccs1)CN1CCN(c2ccccn2)CC1 (stereo not given),inactive: -24.9%
5,Cc1nc2ncnn2c(C)c1CCC(=O)N1CCOCC1,inconclusive: -30.5%
6,Fc1ccc(CCn2c(Cn3c(-c4cnccn4)nc4ccccc43)nc3ccccc32)cc1,active: -58.7%
7,N#CCCn1cc(C(=O)Nc2ccc([N+](=O)[O-])cc2)c(-c2cccs2)n1,inconclusive: -34.5%
9,Oc1ccc2ccc3[nH]cnc3c2c1,inactive: 12.4%
10,COC(=O)c1ccccc1NC(=S)NC(=O)COc1ccccc1,inconclusive: -36.4%
11,COCC(C)n1c(-c2ccc3c(c2)NC(=O)CO3)csc1=Nc1ccc(OC(F)F)cc1 (stereo not given),inconclusive: -32.3%
12,COc1cc2cc(/C=C/C(=O)c3ccco3)c(Cl)nc2cc1OC,inconclusive: -44.9%
13,CCNc1oc(COc2cccc(C)c2)nc1C#N,inactive: 19.1%
14,CCCC(=O)NCCc1cc2cc(C)c(C)cc2[nH]c1=O,inconclusive: -32.6%
15,COc1ccc(NC(=O)CSc2nc3c(cc2C#N)CN(C)CC3)cc1,inactive: -17.3%
16,Cn1cc([N+](=O)[O-])c(C(=O)NCc2cc3ccccc3[nH]2)n1,inconclusive: -30.2%
17,C(=C\c1ccccc1)/CN1CCN(C(c2cc3ccccc3o2)c2nnnn2-c2ccc3c(c2)OCCO3)CC1 (stereo not given),active: -89%
18,CN(c1ccccc1C(=O)Nc1cccc(Cl)c1Cl)S(C)(=O)=O,active: -57.2%
19,CN(CCCNC(=O)c1cc2c(=O)[nH]c3ccccc3c2n1C)Cc1ccccc1,inactive: -1.04%
